Test results taken from patent US9808448B2, “Pharmaceutical compounds and use of same in cancer and tauopathies” (THE REGENTS OF THE UNIVERSITY OF MICHIGAN, priority 2013, dated 2017).
Some of these results come from one statement about several compounds together. For part of these data: At least one compound was matched to its structure with a doubt left.

The chains behind the UniProt entries cited, without tags or fusion partners.
UniProt P11142, whole entry: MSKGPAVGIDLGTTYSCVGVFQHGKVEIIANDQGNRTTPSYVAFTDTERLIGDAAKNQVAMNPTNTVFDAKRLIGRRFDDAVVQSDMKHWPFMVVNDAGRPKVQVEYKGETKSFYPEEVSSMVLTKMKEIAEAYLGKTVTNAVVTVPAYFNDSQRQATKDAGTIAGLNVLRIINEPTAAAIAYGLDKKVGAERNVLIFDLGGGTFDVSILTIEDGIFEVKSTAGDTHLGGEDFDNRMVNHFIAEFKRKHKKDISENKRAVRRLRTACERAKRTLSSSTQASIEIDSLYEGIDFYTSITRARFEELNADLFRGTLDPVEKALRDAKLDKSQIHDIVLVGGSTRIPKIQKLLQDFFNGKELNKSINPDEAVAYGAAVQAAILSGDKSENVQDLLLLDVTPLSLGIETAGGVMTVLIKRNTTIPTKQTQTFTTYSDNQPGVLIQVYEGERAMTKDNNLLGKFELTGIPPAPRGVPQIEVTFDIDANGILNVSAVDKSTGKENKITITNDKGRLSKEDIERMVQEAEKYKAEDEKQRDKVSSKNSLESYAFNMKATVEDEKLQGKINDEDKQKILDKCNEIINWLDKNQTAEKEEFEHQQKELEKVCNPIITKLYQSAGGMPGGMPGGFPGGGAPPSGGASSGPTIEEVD

Assays:
[1] = Stability in water by LC-MS; assay type: physicochemical; conditions: 100 μM, room temperature
human Hsc70 (HSPA8) = biological target: T1, human Hsc70 (HSPA8) (Homo sapiens, UniProt P11142); test: ELISA competitive binding assay (biotinylated MKT-077 displacement); conditions: read-out: IC50, inhibition of biotinylated MKT-077 binding to immobilized Hsc70, biotin labeled MKT-077 1 μM
T1 construct: made in house
Description: Binding of MKT-077 analogs to immobilized Hsp70 was evaluated using a competitive ELISA. In this established assay, a biotinylated version of MKT-077 is bound to immobilized human Hsc70 (HSPA8) and potential competitors are tested for their ability to block the interaction.
A sample of Hsc70 (50 μL; 0.06 mg/mL) was immobilized in clear flat-bottom 96-well plate in MES buffer (50 mM 2-(N-morpholino)ethanesulfonic acid, pH 5.2) at 37° C. overnight. After discarding the excess protein solution, each well was washed three times with 150 μL TBS-T buffer (25 mM Tris, 140 mM NaCl, 2.7 mM KCl, 0.01% Tween-20, pH 7.4). Then, 1 μL of compound (1% DMSO) was diluted into 24 μL of binding buffer (100 mM Tris, 20 mM KCl, 6 mM MgCl2, 0.01% Triton-X100) and incubated at room temperature for 30 min. Biotin labeled MKT-077 (final concentration 1 μM; 25 μL) was subsequently added into each well and the mixture was incubated at room temperature for another 3 hrs. The wells were washed with 150 μL TBS-T buffer three times prior to blocking with 100 μL 3% bovine serum albumin (BSA) in TBS-T buffer for 5 min at room temperature. […] 1 M HCl stop solution was then added into each well to yield a yellow solution and the absorbance at 450 nm was recorded on SpectraMax M5 (Molecular Devices).

| Compound | time stable in water [1] | IC50 (human Hsc70 (HSPA8)) |
| --- | --- | --- |
| CCn1c(=O)/c(=C2\Sc3ccccc3N2C)s/c1=C\c1cccc[n+]1C [YM-01, 2-((Z)-((E)-3-ethyl-5-(3-methylbenzo[d]thiazol-2(3H)-ylidene)-4-oxothiazolidin-2-ylidene)methyl)-1-methylpyridin-1-ium] | at least 8 hours |  |
| CCn1c(=O)/c(=C2\Sc3ccccc3N2C)s/c1=C\c1ccccn1 [YM-08, (2Z,5E)-3-ethyl-5-(3-methylbenzo[d]thiazol-2(3H)-ylidene)-2-(pyridin-2-ylmethylene)thiazolidin-4-one] | at least 8 hours |  |
| (E)-3-ethyl-5-(3-methylbenzo[d]thiazol-2(3H)-ylidene)-2-(methylthio)-4-oxo-4,5-dihydrothiazol-3-ium [YM-03] |  | > 50 µM |
